Source: article PMC6713331
These are yes or no findings as the source states them, for the method shown. In cells and extracts the contact can be indirect. Binding can be weak; no strength is given. For some assays here: Sequences can lack the tags named with a protein.

How the values were obtained:
[1] = target: T1, FLAG-tagged BGLF3 (wild type) (Epstein-Barr virus) (UniProt P03220); assay: co-IP; FLAG-tagged BGLF3 or BGLF3(T42A) as bait with one partner (BcRF1, BFRF2 or BVLF1) co-expressed in 2089 cells; anti-FLAG M2 agarose, 2 h, 4 C; lysis buffer 20 mM Tris-HCl pH 7.5, 150 mM NaCl, 1 mM EDTA, 1 mM EGTA, 1% Triton; eluted with 3X FLAG peptide; anti-Myc blot; ZEBRA co-transfected in the BcRF1 experiment
T1 sequence: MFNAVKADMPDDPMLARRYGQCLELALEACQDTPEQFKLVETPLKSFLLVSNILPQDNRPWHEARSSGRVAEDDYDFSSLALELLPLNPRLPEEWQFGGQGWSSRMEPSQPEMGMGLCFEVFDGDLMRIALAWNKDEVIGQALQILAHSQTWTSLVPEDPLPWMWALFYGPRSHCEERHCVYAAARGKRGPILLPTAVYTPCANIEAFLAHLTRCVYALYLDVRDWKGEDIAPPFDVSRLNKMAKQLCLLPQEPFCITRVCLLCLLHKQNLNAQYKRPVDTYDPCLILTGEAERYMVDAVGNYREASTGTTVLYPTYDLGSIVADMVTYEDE

[2] = target: T1, FLAG-tagged BGLF3 (wild type) (Epstein-Barr virus); assay: co-IP; FLAG-tagged BGLF3 or BGLF3(T42A) as bait with BFRF2 and BVLF1 co-expressed together in 2089 cells; anti-FLAG M2 agarose, 2 h, 4 C; eluted with 3X FLAG peptide; anti-Myc blot
[3] = target: FLAG-tagged BVLF1 (Epstein-Barr virus); assay: co-IP; FLAG-tagged BVLF1 as bait with BFRF2 alone (no BGLF3 transfected) in 2089 cells; anti-FLAG M2 agarose; anti-Myc blot
[4] = target: FLAG-tagged BVLF1 (Epstein-Barr virus); assay: co-IP; FLAG-tagged BVLF1 as bait with BFRF2 together with BGLF3 or BGLF3(T42A) in 2089 cells; anti-FLAG M2 agarose; anti-Myc blot; quantitation from two independent experiments

## BcRF1 (viral TATA box binding protein) (Epstein-Barr virus)
[1]
  binding: binds

## BVLF1 (prey, detected by anti-Myc) (Epstein-Barr virus)
[2]
  binding: binds
[1]
  binding: binds

B1: BFRF2 (protein, UniProt P14347 1-591)
chain: MALFLARHTLSGTGAGCHGRGPAPDVSEVDLTLQALGERGFSRLLDLGLACLDLSYVEMREFVVWGRPPASEAAVASTPGSLFRSHSSAYWLSEVERPGGLVRWARSQTSPSSLTLAPHLGPSLLSLSVVTGGGCGAVAFCNAFFLAYFLVVRSVFPAFSDRIAAWICDRSPFCENTRAVARGYRGLVKRFLAFVFERSSYDPPLLRQNSRPVERCFAIKNYVPGLDSQSCVTVPSFSRWAQSHASELDPREIRDRVTPATAPSFVADHASALLASLQKKASDTPCGNPIQWMWYRLLVNSCLRSAHCLLPIPAVSEGGRKTGGGVGEELVGAGGPCLSRDVFVAIVSRNVLSCLLNVPAAGPRAYKCFRSHASRPVSGPDYPPLAVFCMDCGYCLNFGKQTGVGGRLNSFRPTLQFYPRDQKEKHVLTCHASGRVYCSNCGSAAVGCQRLAEPPSARSGWRPRIRAVLPHNAAYELDRGSRLLDAIIPCLGPDRTCMRPVVLRGVTVRQLLYLTLRTEARAVCSICQQRQAPEDARDEPHLFSSCLEVELPPGERCAGCRLYQTRYGTPAAQAHPPGEAGGGFSRQSPAS
[3]
  binding: binds weakly

B2: BGLF3 (wild type; prey of the FLAG-BVLF1 co-immunoprecipitation) (protein, UniProt P03220 1-332)
chain: T1 sequence
[4]
  binding: binds
